# Source: US5744310
# Molecular target: p53 wild-type (UniProt P04637)
# Test: activity in cells
# Details: CAT reporter pTM667-3, H358 cells; about 30 fold in Saos-2; protein in cells
sequence,measurement,value
GGGAATTCCAGACTGCAGTGAGCCATGATTGGGCCACTGCACTCCAGCCTGGGCAACACAGTGAGACCCTGTCTCAAAAAAAAAAAAAAAAAAAAAAAAAAAAACAGGAAAAAACAAACAAACAGAAAAGCAGGCCTGGCGCGGTAGCTCATGCCTGTAATCCCAGCGCTTTGGAAGGCTGAGACGGGGTTATCTCTTGGGCTCACAAGTTAGAGACAAGCCTGGGCGTGGGCTATATTGCTAGATCCAGGTCTCTGCAAAAAACAAAACCACTCAGTTTTTAGTCATCTATAACGTCCTGCCTGGAAGCATGCTATTTTGGGCCTCTGAGCTTTTGCACTTGCTAATTCCTTCTGCGCTGGGGAGAGCT (double strand) [bax promoter -687 to -318],activity on this sequence,60 fold

# Construct, isoform or probe ends are uncertain for at least one entry.
